# PubChem BioAssay AID504793, Drosophila RNAi Screening Center – 2011
# Purpose: 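Genes required for cells to halt at G2/M after double-strand DNA breaks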 (primary screen)
# System: Drosophila S2R+ cells
# Reagent: long dsRNA against Drosophila genes, about 0.25 µg dsRNA per well
# Duration: 4 days of dsRNA, then 4 hours of drug before read-out
# Treatment: doxorubicin 0.5 µM for 4 hours to cause double-strand breaks, in cells also given a low, harmless dose of dsRNA against nbs to sensitise the assay
# Measured: 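Mitotic index as the number of phospho-histone H3-positive cells in each well following doxorubicin, given as raw counts without normalisation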
# Scale: mitotic cells: higher = more cells in mitosis, weaker G2 arrest
# Active means: 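Genes are called active only when high mitotic counts were reproduced with independent dsRNAs and mitosis was checked for delay without damage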
# Calls: active = confirmed in follow-up tests; inactive = not confirmed
# In all, the deposit lists about 23,000 reagents; below is a random part of those that have a named target and a result. In the full data, 62 (0.27%) got an active call. 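Calls come from follow-up tests whose scores are not deposited, so confirmed genes may have low counts here; counts are not normalised per plate.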 The raw values are shown without normalisation. A plus sign joins genes that one reagent is predicted to hit. No sequences are given here.
gene,DRSC id,"mitotic cells, replicate 1",call
Rbsn-5 (GeneID 34110),DRSC03094,5,inactive
Rbsn-5 (GeneID 34110),DRSC27756,6,inactive
Tsp33B (GeneID 34590),DRSC02418,3,inactive
Tsp33B (GeneID 34590),DRSC28982,9,inactive
CG11279 (GeneID 39486),DRSC09837,1,inactive
smal (GeneID 5740323),DRSC02318,16,inactive
smal (GeneID 5740323),DRSC02319,10,inactive
smal (GeneID 5740323),DRSC02320,1,inactive
smal (GeneID 5740323),DRSC02504,3,inactive
smal (GeneID 5740323),DRSC22866,8,inactive
smal (GeneID 5740323),DRSC26352,7,inactive
Cpr66Cb (GeneID 38940),DRSC10769,2,inactive
Smug (GeneID 42078),DRSC15762,5,inactive
CG3939 (GeneID 31295),DRSC18498,15,inactive
sit (GeneID 42658),DRSC15760,12,inactive
sit (GeneID 42658),DRSC25250,14,inactive
Neurochondrin (GeneID 40796),DRSC12580,4,inactive
Neurochondrin (GeneID 40796),DRSC26704,2,inactive
Mad (GeneID 33529),DRSC00759,4,inactive
rn (GeneID 40879),DRSC12543,9,inactive
rn (GeneID 40879),DRSC12544,12,inactive
rn (GeneID 40879),DRSC12546,7,inactive
rn (GeneID 40879),DRSC22291,17,inactive
rn (GeneID 40879),DRSC25073,7,inactive
rn (GeneID 40879),DRSC27211,6,inactive
stai (GeneID 33863),DRSC22235,8,inactive
stai (GeneID 33863),DRSC28369,3,inactive
CG4229 (GeneID 39840),DRSC10407,5,inactive
ppk11 (GeneID 34299),DRSC02737,7,inactive
CG14515 (GeneID 43454),DRSC14867,10,inactive
CG5302 (retired record) (GeneID 41898),DRSC15764,2,inactive
CG5302 (retired record) (GeneID 41898),DRSC15765,3,inactive
CG5302 (retired record) (GeneID 41898),DRSC22671,9,inactive
CG43773 (GeneID 33617),DRSC00287,4,inactive
CG43773 (GeneID 33617),DRSC00288,2,inactive
CG43773 (GeneID 33617),DRSC26834,5,inactive
CG3323 (GeneID 31439),DRSC18303,9,inactive
OS9 + Hf,DRSC03392,5,inactive
CG4789 (GeneID 32668),DRSC19918,15,inactive
Pkg21D (GeneID 33253),DRSC00772,2,inactive
Pkg21D (GeneID 33253),DRSC29092,4,inactive
Ir7b (GeneID 31690),DRSC18009,11,inactive
Eig71Ei (GeneID 39710),DRSC11156,5,inactive
Eig71Ei (GeneID 39710),DRSC29123,5,inactive
LKRSDH (GeneID 34064),DRSC03015,5,inactive
LKRSDH (GeneID 34064),DRSC24572,4,inactive

Laid out differently: 3 of the entries above.
| gene | DRSC id | mitotic cells, replicate 1 | call |
| --- | --- | --- | --- |
| CG5302 (retired record) (GeneID 41898) | DRSC22671 | 9 | inactive |
| CG43773 (GeneID 33617) | DRSC00287 | 4 | inactive |
| CG43773 (GeneID 33617) | DRSC00288 | 2 | inactive |
